This note sets out measurements from PMC4287497, “Phosphorylation of Elp1 by Hrr25 Is Required for Elongator-Dependent tRNA Modification in Yeast” (PLoS Genetics, 2015).

Sequences of proteins named here, by UniProt entry; tags and fusion partners are left off. A change or cut given only in a name is not applied to a line headed by its entry.
UniProt P29295: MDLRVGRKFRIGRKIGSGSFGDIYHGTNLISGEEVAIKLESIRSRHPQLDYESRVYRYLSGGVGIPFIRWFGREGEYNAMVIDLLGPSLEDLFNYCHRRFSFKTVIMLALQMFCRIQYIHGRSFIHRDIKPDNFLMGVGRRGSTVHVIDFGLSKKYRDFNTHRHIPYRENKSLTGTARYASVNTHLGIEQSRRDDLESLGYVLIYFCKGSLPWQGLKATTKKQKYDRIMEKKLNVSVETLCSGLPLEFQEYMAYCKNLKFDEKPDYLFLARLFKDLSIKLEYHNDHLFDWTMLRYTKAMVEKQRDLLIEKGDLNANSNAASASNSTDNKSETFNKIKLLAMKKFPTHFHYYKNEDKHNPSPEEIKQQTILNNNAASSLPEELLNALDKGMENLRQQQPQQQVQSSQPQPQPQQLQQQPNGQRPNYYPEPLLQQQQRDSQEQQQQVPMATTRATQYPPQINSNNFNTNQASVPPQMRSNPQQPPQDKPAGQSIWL

These are yes or no findings as the source states them, for the method shown. Binding can be weak; no strength is given. For part of these data: Binding seen in cells or lysates may run through a third protein. For part of these data: Where a sequence is shown, tags or fusion partners need not be part of it.

One assay addresses T1, Elp3-TAP (S. cerevisiae) (UniProt Q02908).
T1 sequence: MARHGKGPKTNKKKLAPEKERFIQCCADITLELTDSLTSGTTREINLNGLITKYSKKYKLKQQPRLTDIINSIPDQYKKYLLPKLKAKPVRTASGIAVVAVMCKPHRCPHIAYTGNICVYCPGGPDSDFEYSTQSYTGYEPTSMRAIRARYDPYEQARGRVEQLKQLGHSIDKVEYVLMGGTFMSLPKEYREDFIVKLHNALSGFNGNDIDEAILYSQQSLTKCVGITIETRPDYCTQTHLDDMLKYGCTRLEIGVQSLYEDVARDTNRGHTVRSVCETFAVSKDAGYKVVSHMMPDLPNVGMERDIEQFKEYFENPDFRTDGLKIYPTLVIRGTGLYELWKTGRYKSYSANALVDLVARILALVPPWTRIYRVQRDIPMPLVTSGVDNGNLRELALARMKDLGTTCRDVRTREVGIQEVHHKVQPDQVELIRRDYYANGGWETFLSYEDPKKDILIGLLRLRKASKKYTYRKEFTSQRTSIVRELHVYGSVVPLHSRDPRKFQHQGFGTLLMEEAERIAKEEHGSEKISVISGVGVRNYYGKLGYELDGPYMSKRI
As to the kind of experiment: tandem affinity purification with Western blot; Elongator purified by Elp3-TAP from elp1Δ ELP3-TAP strains carrying ELP1-6HA alleles; Western blot for Elp3-TAP and Elp1-6HA. (In general: A western blot detects proteins with antibodies after separation by electrophoresis.)

Another assay concerns the target T2, Elp1-HA (S. cerevisiae) (UniProt Q06706).
T2 sequence: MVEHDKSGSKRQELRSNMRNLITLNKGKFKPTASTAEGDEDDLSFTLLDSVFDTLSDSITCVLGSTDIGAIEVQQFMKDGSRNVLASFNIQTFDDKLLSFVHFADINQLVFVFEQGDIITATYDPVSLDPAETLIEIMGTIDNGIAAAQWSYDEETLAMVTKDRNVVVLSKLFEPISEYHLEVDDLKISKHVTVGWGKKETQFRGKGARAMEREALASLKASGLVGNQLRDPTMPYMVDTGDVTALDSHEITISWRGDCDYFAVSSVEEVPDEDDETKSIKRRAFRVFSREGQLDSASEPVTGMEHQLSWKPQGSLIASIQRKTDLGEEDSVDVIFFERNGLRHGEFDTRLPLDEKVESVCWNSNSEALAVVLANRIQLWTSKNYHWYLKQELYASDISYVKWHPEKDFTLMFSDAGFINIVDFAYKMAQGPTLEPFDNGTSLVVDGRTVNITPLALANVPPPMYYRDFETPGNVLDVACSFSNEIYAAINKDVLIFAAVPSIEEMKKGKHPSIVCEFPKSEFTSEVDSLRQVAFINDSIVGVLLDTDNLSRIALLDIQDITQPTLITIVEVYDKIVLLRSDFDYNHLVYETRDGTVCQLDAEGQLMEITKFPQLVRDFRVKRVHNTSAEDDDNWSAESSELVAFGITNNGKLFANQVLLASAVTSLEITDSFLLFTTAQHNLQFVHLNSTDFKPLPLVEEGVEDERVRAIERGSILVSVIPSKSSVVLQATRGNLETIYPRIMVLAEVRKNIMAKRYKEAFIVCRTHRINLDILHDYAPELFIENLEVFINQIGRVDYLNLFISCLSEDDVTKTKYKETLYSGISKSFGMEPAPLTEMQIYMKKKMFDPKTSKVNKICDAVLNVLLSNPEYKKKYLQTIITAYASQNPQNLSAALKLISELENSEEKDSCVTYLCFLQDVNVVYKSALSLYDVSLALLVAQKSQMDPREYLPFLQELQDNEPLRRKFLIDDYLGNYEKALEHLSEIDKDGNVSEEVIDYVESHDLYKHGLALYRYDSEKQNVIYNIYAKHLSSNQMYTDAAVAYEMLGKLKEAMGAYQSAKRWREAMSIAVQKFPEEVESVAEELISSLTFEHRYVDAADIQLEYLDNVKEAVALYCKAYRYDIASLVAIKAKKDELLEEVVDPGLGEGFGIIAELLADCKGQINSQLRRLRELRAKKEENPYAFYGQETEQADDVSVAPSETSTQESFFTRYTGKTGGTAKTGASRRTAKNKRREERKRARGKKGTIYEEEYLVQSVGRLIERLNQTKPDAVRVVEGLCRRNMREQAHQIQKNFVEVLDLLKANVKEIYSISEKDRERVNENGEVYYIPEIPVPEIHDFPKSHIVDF
As to the kind of experiment: co-IP; Elp1-HA immunoprecipitated from extracts of HRR25 and hrr25-2 strains; Western blot with anti-HA, anti-myc and anti-Hrr25; untagged ELP1 as control.

The target of assay [1] is Elp1-KR9A-GFP (S. cerevisiae) (UniProt Q06706). Briefly: co-IP; GFP-tagged Elp1 (genomic locus) precipitated with GFP-trap from yeast extracts; Western blot with anti-GFP and anti-HA; densitometry of Kti12-HA normalised to Elp1-GFP, wild type set to 1.0.

For “Elp1 in which the C-terminal region had been deleted (6HA-tagged) (S. cerevisiae) (domain or fragment)”, the binding result in the assay with Elp3-TAP (S. cerevisiae) is “binds”.
With “Hrr25 of the hrr25-2 mutant strain (from UniProt P29295) (enzyme)”, the binding entry in the assay with Elp1-HA (S. cerevisiae) was “binds”.

B1: Kti12-HA6 (natural protein, S. cerevisiae, UniProt P34253 1-313, looked up)
chain: MPLVLFTGYPCSGKTTLAKHLVQLLQSKIDATPSLSKYSITYHSDESLGIKHSDYITSQDERKLRSEIISAVKRDLSKNKIVIVDSLNYIKGFRYQLHCEVKNLSTTFCVIQTLCPPETIFEWNKTSNPNPWEPELLNQLIQRYEEPNSSNRWDSPLFAILTPQDNITDYIDDICKVVFQTSKSAKNSGHNDPLSKGLQKPNSATVLKPASQSNFIQVLDIETSKIIKTIMNHIKSLTSIGGVSNGTRVIVSEGITDINDDGCFFVDLPIGNVVTLAQLQRLKRQFINFNKLRDIDQDRIGPLFADYLNKNLN
notes: Kti12, accessory protein of Elongator, S. cerevisiae; also called HA-tagged Kti12; source: S. cerevisiae KTI12-HA6 strains, in cell extract
For the molecule B1, the binding entry in assay [1] is reported as “binds”.
